Laboratory results from PubChem BioAssay AID602235 (The Scripps Research Institute Molecular Screening Center, 2012).
Activity calls are given as the source filed them. The rule behind the calls is not given here.

Amino acid sequences for entries named in this document (tags omitted). A change or cut given only in a name is not applied to a line headed by its entry.
UniProt Q15788: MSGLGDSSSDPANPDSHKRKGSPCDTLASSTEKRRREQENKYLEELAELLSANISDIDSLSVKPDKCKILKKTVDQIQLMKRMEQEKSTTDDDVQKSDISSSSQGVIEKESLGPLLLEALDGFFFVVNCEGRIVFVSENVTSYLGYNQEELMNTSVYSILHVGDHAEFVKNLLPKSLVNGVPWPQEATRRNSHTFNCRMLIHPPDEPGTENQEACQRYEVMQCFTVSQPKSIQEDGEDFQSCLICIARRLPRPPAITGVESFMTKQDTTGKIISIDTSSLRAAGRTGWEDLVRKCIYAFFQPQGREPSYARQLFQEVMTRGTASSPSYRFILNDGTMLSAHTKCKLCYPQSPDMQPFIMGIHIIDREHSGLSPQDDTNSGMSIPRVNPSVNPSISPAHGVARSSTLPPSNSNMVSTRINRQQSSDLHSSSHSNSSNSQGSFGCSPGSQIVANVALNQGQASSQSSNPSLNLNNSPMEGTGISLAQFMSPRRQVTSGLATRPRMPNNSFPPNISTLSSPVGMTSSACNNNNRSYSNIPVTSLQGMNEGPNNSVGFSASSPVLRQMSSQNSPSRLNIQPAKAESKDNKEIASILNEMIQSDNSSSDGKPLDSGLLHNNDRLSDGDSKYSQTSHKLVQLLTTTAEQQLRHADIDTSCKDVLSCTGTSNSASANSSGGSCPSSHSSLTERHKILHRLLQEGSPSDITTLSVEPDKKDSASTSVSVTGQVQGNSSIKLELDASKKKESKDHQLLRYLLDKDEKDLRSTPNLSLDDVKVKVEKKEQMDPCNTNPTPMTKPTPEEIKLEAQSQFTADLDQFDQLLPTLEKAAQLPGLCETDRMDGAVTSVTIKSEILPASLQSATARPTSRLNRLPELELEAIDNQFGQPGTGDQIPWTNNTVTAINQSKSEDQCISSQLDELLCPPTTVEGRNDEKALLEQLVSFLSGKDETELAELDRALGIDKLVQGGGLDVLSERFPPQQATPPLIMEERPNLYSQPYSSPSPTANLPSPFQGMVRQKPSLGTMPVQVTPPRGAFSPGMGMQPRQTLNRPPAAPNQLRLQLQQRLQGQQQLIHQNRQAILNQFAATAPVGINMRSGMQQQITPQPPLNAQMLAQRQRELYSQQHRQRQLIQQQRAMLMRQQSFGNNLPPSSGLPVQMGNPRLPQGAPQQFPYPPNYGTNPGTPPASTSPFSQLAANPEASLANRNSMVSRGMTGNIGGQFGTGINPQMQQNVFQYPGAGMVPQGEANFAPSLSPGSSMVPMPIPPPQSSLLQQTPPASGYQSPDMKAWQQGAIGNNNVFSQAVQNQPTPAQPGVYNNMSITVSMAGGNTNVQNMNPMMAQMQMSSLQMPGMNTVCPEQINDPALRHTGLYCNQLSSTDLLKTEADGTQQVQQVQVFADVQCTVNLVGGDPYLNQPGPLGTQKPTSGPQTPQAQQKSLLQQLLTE

Target: Nuclear receptor coactivator 1 (Homo sapiens) (UniProt Q15788)
Experiment: SRC1 (NCOA1) coactivator inhibitors, dose response, cell-based, luciferase reporter, luminescence (AID 602235);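 note: cells transfected with pGL4.31 reporter plus pBIND-SRC1 vector; potency is for inhibitors that lower SRC1 reporter luminescence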

IC50: inactive: > 35.8 µM
SMILES: CN(C)C(=O)c1cccc(COc2ccc(N3C(N)=NC(N)=NC3(C)C)cc2Cl)c1
